Measured values from patent US20080280765A1, “Method of Promoting Enlargement Growth of Agricultural and Horticultural Crops” (priority 2006, published 2008).

Test system: grape (species: "Italia")
Experiment: Fruit enlargement test, grape, dipping treatment of bunches
Type: in vivo
Details: for Sugar level: hand-held refracto-sugar meter
Experimental: Using grape (species: “Italia”) as a subject, a fruit enlargement test was done following the experimental summary described below. The test was carried out with 7 replication. Fifteen days after the full bloom, grape bunches were dipped in a chemical solution diluted to a predetermined concentration. The treated grape bunches were dried in air and grown as they were, until the bunches were harvested 43 days after the treatment to examine the bunch weight and the total number of grape berries. Five berries were randomly selected from each grape bunch of 5 replication among the test lots, for measuring the sugar level with a hand-held refracto-sugar meter manufactured by ATAGO CO., LTD (Type number: Nl). Additionally, a drug substance of gibberellin in powder (98% purity) was used as the gibberellin, while as the prohexadione calcium salt, a 27.5% formulation (the trade name: Viviful) was used, and as the trinexapac ethyl, a 25% formulation thereof (the trade name: Moddus) was used.
Material: Grape bunch “Italia” Fully bloomed on Sep. 21, 2006; starting the treatments on Oct. 6, 2006; harvested on Dec. 18, 2006: 7 bunches per one treatment lot.
C: Cont (control lot) G: dipping treatment in gibberellin (24.5 ppm) PCA: dipping treatment in prohexadione calcium salt (20 ppm, 100 ppm) GPCA: dipping treatment in gibberellin and prohexadione calcium salt (24.5 and 20 ppm, respectively or 24.5 ppm and 100 ppm, respectively) TR: dipping treatment in trinexapac ethyl (20 ppm, 100 ppm) G+TR: dipping treatment in gibberellin and trinexapac ethyl (24.5 ppm and 20 ppm, respectively or 24.5 ppm and 100 ppm, respectively).
Herein, statistical analysis was done by the Tukey's HSD test (p=0.05). Significant difference is observed between different alphabets.

| SMILES | Mean berry number/bunch (in number) (20 ppm) | Sugar level (20 ppm) | Mean berry number/bunch (in number) (100 ppm) | Sugar level (100 ppm) |
| --- | --- | --- | --- | --- |
| CCC(=O)C1=C(O)CC(C(=O)O)CC1=O (centres unmarked) [PCA, prohexadione calcium salt] | 64.0 | 10.8% | 61.1 | 11.2% |
| CCOC(=O)C1CC(=O)C(=C(O)C2CC2)C(=O)C1 (centres unmarked) [TR, trinexapac ethyl] | 62.1 | 11.0% | 71.4 | 10.6% |

Structures can show the parent of a compound that is named as a salt.
